Experimental data as given in patent US6482805B2 (Parker Hughes Institute, priority 1998, dated 2002).
Some results were stated once for a whole list of compounds, not compound by compound.

System: sperm plasma membrane
Assay: Sperm plasma membrane permeability, propidium iodide flow cytometry (Example 4)
Assay type: cell-based, human
Conditions: 4 hours of incubation, 100 μM

Compound | sperm permeable to PI
5-bromo-6-methoxy-5,6-dihydro-3 ′-azidothymidine-5 ′-(p-methoxyphenyl) methoxyalaninyl phosphate [WHI-05] | less than 3%
COC(=O)C(C)NP(=O)(OCC1OC(N2C(=O)NC(=O)C(C)(Br)C2OC)CC1N=[N+]=[N-])Oc1ccc(Br)cc1 (centres unmarked) [WHI-07, 5-Bromo-6-methoxy-5,6-dihydro-3′-azidothymidine-5′-(p-Bromophenyl Methoxyalaninyl Phosphate)] | less than 3%
